Measurements published in patent US20060154871A1, “Peptides” (ReGen Therapeutics PIc, priority 1999, published 2006).

Assay: Level of peptides in sheep colostrum post parturition, measured by antigen-antibody reaction with the Example 3 antibodies
Details: in sheep colostrum
Procedure: In order to establish that the peptides corresponding to the synthetic peptide antigens exist in Colostrinin we carried out tests to determine whether certain of the antibodies produced a reaction in Colostrinin itself.
We studied the rate at which the peptides A-4, B-7, B-8 and B-9 disappeared from colostrum produced in sheep. The colostrum was collected from the mother's milk at 24 hours, 48 hours and 72 hours post parturition, and the level of the peptides was measured. The peptide level was measured by means of an antigen-antibody reaction, using the antibodies produced by the method of Example 3.

Substance	recognition of the amino acid sequence by the antibodies
LKPFPKLKVEVFPFP [Peptide A-4, Colostrinin peptide of unknown precursor]	recognised
MQPPPLP [Peptide B-9, Colostrinin peptide (possibly) having β-casein homologue precursor]	recognised
LFFFLPVVNVLP [Peptide B-8, Colostrinin peptide (possibly) having β-casein homologue precursor]	recognised
DLEMPVLPVEPFPFV [Peptide B-7, Colostrinin peptide (possibly) having β-casein homologue precursor]	recognised

Same assay, conditions: sheep colostrum collected 24 hours post parturition

Substance	24 Hour Titre
LKPFPKLKVEVFPFP [Peptide A-4, Colostrinin peptide of unknown precursor]	12800
MQPPPLP [Peptide B-9, Colostrinin peptide (possibly) having β-casein homologue precursor]	12800
LFFFLPVVNVLP [Peptide B-8, Colostrinin peptide (possibly) having β-casein homologue precursor]	12800
DLEMPVLPVEPFPFV [Peptide B-7, Colostrinin peptide (possibly) having β-casein homologue precursor]	12800

Same assay, conditions: sheep colostrum collected 48 hours post parturition

Substance	48 Hour Titre
LKPFPKLKVEVFPFP [Peptide A-4, Colostrinin peptide of unknown precursor]	6400
MQPPPLP [Peptide B-9, Colostrinin peptide (possibly) having β-casein homologue precursor]	12800
LFFFLPVVNVLP [Peptide B-8, Colostrinin peptide (possibly) having β-casein homologue precursor]	3200
DLEMPVLPVEPFPFV [Peptide B-7, Colostrinin peptide (possibly) having β-casein homologue precursor]	6400

Same assay, conditions: sheep colostrum collected 72 hours post parturition

Substance	72 Hour Titre
LKPFPKLKVEVFPFP [Peptide A-4, Colostrinin peptide of unknown precursor]	3200
MQPPPLP [Peptide B-9, Colostrinin peptide (possibly) having β-casein homologue precursor]	3200
LFFFLPVVNVLP [Peptide B-8, Colostrinin peptide (possibly) having β-casein homologue precursor]	3200
DLEMPVLPVEPFPFV [Peptide B-7, Colostrinin peptide (possibly) having β-casein homologue precursor]	3200
